# Reference: patent US10513547B2, “Peptides and combination of peptides and scaffolds thereof for use in immunotherapy against colorectal carcinoma (CRC) and other cancers” (Immatics Biotechnologies GmbH, priority 2015, dated 2019)
# Test system: HLA molecules from shock-frozen tissue samples (CRC, other tumors, normal tissues)
# Test: Identification and label-free relative LC-MS quantitation of HLA-presented tumor associated peptides (presentation profiles, XPRESIDENT)
# Design: species or system human; key to Peptide Presentation (presentation score): very highly over-presented on tumors compared to a panel of normal tissues (+++); highly over-presented on tumors compared to a panel of normal tissues (++); over-presented on tumors compared to a panel of normal tissues (+)
# Details: additional tumor types: over-presented on more than 5% of measured tumor samples, or presented on more than 5% with ratio of geometric means tumor vs normal larger than 3
row,Substance,Other relevant organs/diseases
1,189 (AISEVIGKITA; listed as Homo sapiens) [compound 189],Ovary
2,158 (GLLDPSVFHV; listed as Homo sapiens) [compound 158],"Kidney, Brain, Liver, Esophagus"
3,216 (YLWDLDHGFAGV; listed as Homo sapiens) [compound 216],"Lung, Brain, Liver, Prostate, Melanoma, Ovary, Esophagus"
4,207 (KLCEGFNEV; listed as Homo sapiens) [compound 207],"Brain, Liver"
5,161 (FLKNELDNV; listed as Homo sapiens) [compound 161],"Lung, Liver, Leukocytes, Breast, Melanoma, Ovary"
6,117 (TLQPVDNSTISL; listed as Homo sapiens) [compound 117],"Lung, Kidney, Liver, Pancreas, Esophagus"
7,233 (RLDDLKMTV; listed as Homo sapiens) [compound 233],"Lung, Kidney, Pancreas, Breast, Ovary, Esophagus"
8,165 (RLLDFPEAMVL; listed as Homo sapiens) [compound 165],"Lung, Ovary"
9,253 (KLLDEVTYLEA; listed as Homo sapiens) [compound 253],Liver
10,238 (NMLEAVHTI; listed as Homo sapiens) [compound 238],"Lung, Liver, Melanoma, Ovary, Esophagus"
11,98 (AMNGKSFSV; listed as Homo sapiens) [compound 98],"Liver, Esophagus"
12,208 (RLIDRIKTV; listed as Homo sapiens) [compound 208],"Lung, Brain, Liver, Ovary"
13,125 (KLGDFGLLVEL; listed as Homo sapiens) [compound 125],"Lung, Brain, Melanoma, Ovary, Esophagus"
14,110 (LLGELPRLLLL; listed as Homo sapiens) [compound 110],"Lung, Pancreas, Leukocytes"
15,198 (VLYGPDVPTI; listed as Homo sapiens) [compound 198],Pancreas
16,262 (VLAKPGVISV; listed as Homo sapiens) [compound 262],"Lung, Pancreas"
17,15 (LQLDKEFQL; listed as Homo sapiens) [compound 15],"Lung, Esophagus"

row,Substance,Other relevant organs/diseases
1,69 (GMLNEAEGKAIKL; listed as Homo sapiens) [compound 69],Prostate
2,260 (ALLAEGITWV; listed as Homo sapiens) [compound 260],Liver
3,57 (NLLEKENYL; listed as Homo sapiens) [compound 57],Ovary
4,237 (KLVEFDFLGA; listed as Homo sapiens) [compound 237],"Lung, Brain, Stomach, Liver, MCC, Ovary, Esophagus"
5,201 (GSFNGALAAV; listed as Homo sapiens) [compound 201],"Brain, Pancreas"
6,71 (RLWTEIPTAI; listed as Homo sapiens) [compound 71],Liver
7,11 (YLFEKTFNM; listed as Homo sapiens) [compound 11],"Lung, Brain, Esophagus"
8,202 (GLAALAVHL; listed as Homo sapiens) [compound 202],"Melanoma, Ovary, Esophagus"
9,58 (AMADKMDMSL; listed as Homo sapiens) [compound 58],"Brain, Leukocytes, Melanoma"
10,188 (FLVDGPRVQL; listed as Homo sapiens) [compound 188],"Breast, Melanoma"
11,56 (VLFTDEGVPKFL; listed as Homo sapiens) [compound 56],"Lung, Kidney, Liver"
12,163 (RLLHEVQEL; listed as Homo sapiens) [compound 163],Brain
13,6 (FLAELPGSLSL; listed as Homo sapiens) [compound 6],"Lung, Liver, Leukocytes, Melanoma, Ovary"
14,63 (KLFSILSTV; listed as Homo sapiens) [compound 63],"Brain, Liver, Prostate, Ovary, Esophagus"
15,59 (LLTDNVVKL; listed as Homo sapiens) [compound 59],"Lung, Liver, Esophagus"
16,82 (QLYEEPDTKL; listed as Homo sapiens) [compound 82],"Leukocytes, Esophagus"

# Same assay, conditions: all samples with detectable presentation, all tumor types
row,Substance,number of cancer tissues with detectable presentation of the peptide
1,SEQ ID NO.: 31 (LLYGKYVSV; listed as Homo sapiens),28

# Same assay, conditions: normal tissue panel as in FIG. 1A-C
row,Substance,number of normal tissues with detectable presentation of the peptide
1,SEQ ID NO.: 31 (LLYGKYVSV; listed as Homo sapiens),0

# Same assay, conditions: over-presentation on more than 5% of the measured tumor samples, or presentation on more than 5% of the measured tumor samples with ratio of geometric means tumor vs normal tissues larger than 3
row,Substance,Additional Entities (additional tumor types on which the peptide was found)
1,189 (AISEVIGKITA; listed as Homo sapiens) [compound 189],"Gallbladder Cancer, Bile Duct Cancer, PC"
2,158 (GLLDPSVFHV; listed as Homo sapiens) [compound 158],"Melanoma, Urinary bladder cancer, Gallbladder Cancer, Bile Duct Cancer, AML, NHL"
3,120 (VLYEGVDEV; listed as Homo sapiens) [compound 120],"SCLC, BRCA, Gallbladder Cancer, Bile Duct Cancer"
4,161 (FLKNELDNV; listed as Homo sapiens) [compound 161],"Esophageal Cancer, Urinary bladder cancer, Uterine Cancer, AML, NHL"
5,97 (ALWWGVVTV; listed as Homo sapiens) [compound 97],CLL
6,117 (TLQPVDNSTISL; listed as Homo sapiens) [compound 117],"Uterine Cancer, Gallbladder Cancer, Bile Duct Cancer"
7,165 (RLLDFPEAMVL; listed as Homo sapiens) [compound 165],"SCLC, CLL, Urinary bladder cancer, Uterine Cancer"
8,98 (AMNGKSFSV; listed as Homo sapiens) [compound 98],"NSCLC, SCLC, BRCA, Melanoma, OC, Urinary bladder cancer, Gallbladder Cancer, Bile Duct Cancer"
9,125 (KLGDFGLLVEL; listed as Homo sapiens) [compound 125],"SCLC, Urinary bladder cancer, AML, PC"
10,110 (LLGELPRLLLL; listed as Homo sapiens) [compound 110],"Melanoma, Esophageal Cancer, Urinary bladder cancer"
11,43 (TLDAAQPRV; listed as Homo sapiens) [compound 43],"PrC, Esophageal Cancer"
12,71 (RLWTEIPTAI; listed as Homo sapiens) [compound 71],"NSCLC, SCLC, Melanoma, Esophageal Cancer, Urinary bladder cancer"
13,11 (YLFEKTFNM; listed as Homo sapiens) [compound 11],"SCLC, Urinary bladder cancer"
14,58 (AMADKMDMSL; listed as Homo sapiens) [compound 58],"NSCLC, SCLC, BRCA, Urinary bladder cancer, Uterine Cancer, Gallbladder Cancer, Bile Duct Cancer, AML, NHL"
15,188 (FLVDGPRVQL; listed as Homo sapiens) [compound 188],"CLL, Uterine Cancer"
16,56 (VLFTDEGVPKFL; listed as Homo sapiens) [compound 56],"BRCA, Melanoma, Urinary bladder cancer, Uterine Cancer, OC"
17,163 (RLLHEVQEL; listed as Homo sapiens) [compound 163],"RCC, AML, NHL"
18,6 (FLAELPGSLSL; listed as Homo sapiens) [compound 6],"SCLC, Urinary bladder cancer, Uterine Cancer, Gallbladder Cancer, Bile Duct Cancer, AML, NHL"
19,63 (KLFSILSTV; listed as Homo sapiens) [compound 63],"SCLC, Melanoma, Urinary bladder cancer, Uterine Cancer, Gallbladder Cancer, Bile Duct Cancer, NHL"
20,59 (LLTDNVVKL; listed as Homo sapiens) [compound 59],"Melanoma, AML, NHL"
21,82 (QLYEEPDTKL; listed as Homo sapiens) [compound 82],"SCLC, Melanoma, Urinary bladder cancer, Gallbladder Cancer, Bile Duct Cancer, AML, NHL"

# Same assay, conditions: over-presentation on tumors compared to a panel of normal tissues
row,Substance,Peptide Presentation (presentation score)
1,158 (GLLDPSVFHV; listed as Homo sapiens) [compound 158],+++
2,216 (YLWDLDHGFAGV; listed as Homo sapiens) [compound 216],+++
3,207 (KLCEGFNEV; listed as Homo sapiens) [compound 207],+++
4,161 (FLKNELDNV; listed as Homo sapiens) [compound 161],++
5,97 (ALWWGVVTV; listed as Homo sapiens) [compound 97],++
6,233 (RLDDLKMTV; listed as Homo sapiens) [compound 233],++
7,165 (RLLDFPEAMVL; listed as Homo sapiens) [compound 165],+++
8,238 (NMLEAVHTI; listed as Homo sapiens) [compound 238],++
9,208 (RLIDRIKTV; listed as Homo sapiens) [compound 208],+++
10,125 (KLGDFGLLVEL; listed as Homo sapiens) [compound 125],+++
11,110 (LLGELPRLLLL; listed as Homo sapiens) [compound 110],+
12,198 (VLYGPDVPTI; listed as Homo sapiens) [compound 198],++
13,15 (LQLDKEFQL; listed as Homo sapiens) [compound 15],+
14,69 (GMLNEAEGKAIKL; listed as Homo sapiens) [compound 69],+
15,57 (NLLEKENYL; listed as Homo sapiens) [compound 57],++
16,43 (TLDAAQPRV; listed as Homo sapiens) [compound 43],++

row,Substance,Peptide Presentation (presentation score)
1,237 (KLVEFDFLGA; listed as Homo sapiens) [compound 237],++
2,201 (GSFNGALAAV; listed as Homo sapiens) [compound 201],+++
3,71 (RLWTEIPTAI; listed as Homo sapiens) [compound 71],++
4,96 (KLYSRLVYV; listed as Homo sapiens) [compound 96],++
5,11 (YLFEKTFNM; listed as Homo sapiens) [compound 11],+++
6,7 (YLTRHLAVL; listed as Homo sapiens) [compound 7],+++
7,202 (GLAALAVHL; listed as Homo sapiens) [compound 202],+++
8,58 (AMADKMDMSL; listed as Homo sapiens) [compound 58],+
9,12 (ALVQGILERV; listed as Homo sapiens) [compound 12],+++
10,188 (FLVDGPRVQL; listed as Homo sapiens) [compound 188],+
11,56 (VLFTDEGVPKFL; listed as Homo sapiens) [compound 56],+
12,163 (RLLHEVQEL; listed as Homo sapiens) [compound 163],++
13,6 (FLAELPGSLSL; listed as Homo sapiens) [compound 6],+
14,63 (KLFSILSTV; listed as Homo sapiens) [compound 63],+
15,59 (LLTDNVVKL; listed as Homo sapiens) [compound 59],+
16,82 (QLYEEPDTKL; listed as Homo sapiens) [compound 82],++
